For part of these data: What follows is the remainder of the data, with few or none of the hits. Records with an inconclusive call do not appear. This is a selection; strong and weak results do not stand in their true shares. Activity calls are given as the source filed them. Rule for the calls, unless noted: active = hit-call score of the fitted dose curve at least 0.9, where 1 is the maximum; inactive = score below 0.9.
Legend:
[1] = CEETOX_H295R_OHPREG: CeeTox H295R High-throughput Steroidogenesis Assay for OH-Pregnenolone (OHPREG) (AID 2283434); settings: actives raise or lower the signal
[2] = read-out: Cytochrome P450 (CYP1A2), CYP1A2 (gene 1544); experiment: LTEA_HepaRG_CYP1A2: Life Technologies and Expression Analysis (LTEA) Assay for Cytochrome P450 (CYP1A2) using HepaRG (AID 2283479); settings: actives raise or lower the signal; mRNA level, 48 h
How it was run: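 HepaRG, 48 h exposure, top 100 uM, half-log 8-pt, 0.5% DMSO vehicle, duplicates. Readout: TaqMan qRT-PCR of CYP1A2 mRNA, housekeeping-normalized (ACTB/GAPDH/POLR2A). Gain/loss fit relative to DMSO baseline.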

Chains of the proteins cited; added tags and fusions are not shown. Lines headed by an entry give the natural chain unless they say otherwise; changes in a name come on top.
UniProt P03372, whole entry, looked up: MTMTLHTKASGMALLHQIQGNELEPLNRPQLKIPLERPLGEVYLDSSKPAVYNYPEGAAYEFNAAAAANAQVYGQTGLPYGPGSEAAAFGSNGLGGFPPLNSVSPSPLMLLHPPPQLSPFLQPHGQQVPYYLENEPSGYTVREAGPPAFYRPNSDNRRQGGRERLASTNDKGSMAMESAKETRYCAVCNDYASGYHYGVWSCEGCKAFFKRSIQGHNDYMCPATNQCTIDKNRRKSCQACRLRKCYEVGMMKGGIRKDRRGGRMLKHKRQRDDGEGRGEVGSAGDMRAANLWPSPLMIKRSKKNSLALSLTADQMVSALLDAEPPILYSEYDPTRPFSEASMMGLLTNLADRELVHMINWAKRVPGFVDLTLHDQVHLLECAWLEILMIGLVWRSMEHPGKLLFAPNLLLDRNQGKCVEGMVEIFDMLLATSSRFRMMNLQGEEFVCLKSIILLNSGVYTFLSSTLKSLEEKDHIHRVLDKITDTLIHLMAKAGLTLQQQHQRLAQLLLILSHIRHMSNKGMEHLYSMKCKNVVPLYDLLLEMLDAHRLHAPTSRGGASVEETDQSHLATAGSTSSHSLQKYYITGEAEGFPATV
UniProt P37231: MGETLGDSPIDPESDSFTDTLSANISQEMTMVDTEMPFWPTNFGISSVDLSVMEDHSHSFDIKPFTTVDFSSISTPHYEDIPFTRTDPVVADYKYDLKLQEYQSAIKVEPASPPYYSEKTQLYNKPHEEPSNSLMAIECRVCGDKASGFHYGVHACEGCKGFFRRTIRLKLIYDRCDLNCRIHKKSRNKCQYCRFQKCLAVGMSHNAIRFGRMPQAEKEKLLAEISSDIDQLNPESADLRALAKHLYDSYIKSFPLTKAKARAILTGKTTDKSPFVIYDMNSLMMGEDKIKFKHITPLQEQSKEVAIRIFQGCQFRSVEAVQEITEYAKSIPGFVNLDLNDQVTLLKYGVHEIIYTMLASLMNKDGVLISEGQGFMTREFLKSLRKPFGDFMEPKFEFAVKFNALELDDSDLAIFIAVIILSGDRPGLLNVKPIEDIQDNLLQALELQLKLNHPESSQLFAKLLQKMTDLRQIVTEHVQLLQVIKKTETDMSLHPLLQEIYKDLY
UniProt P08684, whole entry, looked up: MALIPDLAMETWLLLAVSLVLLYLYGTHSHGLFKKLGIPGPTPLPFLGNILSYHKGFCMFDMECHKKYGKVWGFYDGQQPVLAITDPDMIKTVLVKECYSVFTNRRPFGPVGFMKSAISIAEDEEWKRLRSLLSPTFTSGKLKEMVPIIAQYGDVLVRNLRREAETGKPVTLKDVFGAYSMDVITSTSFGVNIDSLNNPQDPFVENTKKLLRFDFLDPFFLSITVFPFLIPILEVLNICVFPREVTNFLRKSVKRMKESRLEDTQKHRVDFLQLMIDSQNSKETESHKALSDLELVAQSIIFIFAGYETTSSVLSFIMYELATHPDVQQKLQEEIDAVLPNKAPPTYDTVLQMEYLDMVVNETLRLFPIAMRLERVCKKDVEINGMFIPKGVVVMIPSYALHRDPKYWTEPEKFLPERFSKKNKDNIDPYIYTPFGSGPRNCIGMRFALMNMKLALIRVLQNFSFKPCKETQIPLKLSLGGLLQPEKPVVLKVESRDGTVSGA
UniProt P19793: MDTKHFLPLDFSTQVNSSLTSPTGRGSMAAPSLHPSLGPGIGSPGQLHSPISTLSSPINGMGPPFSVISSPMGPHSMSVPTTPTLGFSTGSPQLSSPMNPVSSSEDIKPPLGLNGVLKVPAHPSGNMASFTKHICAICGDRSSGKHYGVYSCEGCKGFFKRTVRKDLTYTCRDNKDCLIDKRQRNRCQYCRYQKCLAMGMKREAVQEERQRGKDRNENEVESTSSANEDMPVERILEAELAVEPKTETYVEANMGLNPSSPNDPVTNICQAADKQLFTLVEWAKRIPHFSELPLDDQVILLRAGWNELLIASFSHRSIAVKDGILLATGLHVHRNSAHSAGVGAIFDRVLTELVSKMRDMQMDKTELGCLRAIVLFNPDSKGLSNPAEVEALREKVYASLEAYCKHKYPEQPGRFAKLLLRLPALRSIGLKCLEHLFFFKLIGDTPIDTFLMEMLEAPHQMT
UniProt P08659, whole entry, looked up: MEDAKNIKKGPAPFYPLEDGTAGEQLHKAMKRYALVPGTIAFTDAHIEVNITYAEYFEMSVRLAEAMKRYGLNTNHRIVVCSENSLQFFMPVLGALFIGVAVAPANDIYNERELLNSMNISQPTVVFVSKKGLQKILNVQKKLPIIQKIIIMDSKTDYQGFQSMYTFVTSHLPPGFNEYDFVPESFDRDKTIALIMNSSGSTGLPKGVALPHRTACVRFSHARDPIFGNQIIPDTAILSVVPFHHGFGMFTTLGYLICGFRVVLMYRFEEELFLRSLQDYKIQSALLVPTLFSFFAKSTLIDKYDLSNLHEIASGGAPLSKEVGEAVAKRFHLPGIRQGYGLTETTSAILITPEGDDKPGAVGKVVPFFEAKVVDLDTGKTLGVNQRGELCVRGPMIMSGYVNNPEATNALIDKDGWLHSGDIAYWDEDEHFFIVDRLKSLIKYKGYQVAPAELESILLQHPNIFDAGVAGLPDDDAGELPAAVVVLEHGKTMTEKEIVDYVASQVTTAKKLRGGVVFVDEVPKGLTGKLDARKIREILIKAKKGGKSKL

[3] = read-out: Tumor necrosis factor receptor 1 (TNFRSF1A), TNFRSF1A (gene 7132); experiment: LTEA_HepaRG_TNFRSF1A: Life Technologies and Expression Analysis (LTEA) Assay for Tumor necrosis factor receptor 1 (TNFRSF1A) using HepaRG (AID 2283535); settings: actives raise or lower the signal; mRNA level, 48 h
How it was run: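 HepaRG, 48 h plating then 48 h chemical exposure, serum-free induction media; 8-pt CRC from 100 uM, half-log, 0.5% DMSO vehicle, duplicates. Readout: TaqMan qRT-PCR (Fluidigm), housekeeping-gene normalized; bidirectional fit vs DMSO.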

[4] = CCTE_Shafer_MEA_dev_correlation_coefficient_mean: CCTE's Neural Network Formation Assay for Mean Correlation Coefficient, Shafer Lab (AID 2284093)
How it was run: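 Rat cortical cultures, 1.5 x 10^5 cells/well, dosed from day 0 for 12 days. Spontaneous spikes recorded DIV 5/7/9/12; electrode-pair correlation coefficients averaged, AUC taken. Fit in loss direction vs DMSO.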

[5] = target: Estrogen receptor (Homo sapiens) (UniProt P03372); experiment: OT_ERa_GFPERaERE_0120: Odyssey Thera (OT) 2-hour HeLa Transcription Induction Assay for Estrogen Receptor (AID 2283382; active = hit-call score of the fitted dose curve at least 0.9, where 1 is the maximum)
How it was run: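 Two-hour compound treatment of HeLa cells preceded microscopy imaging of an inducible fluorescent reporter. Image-based quantification gave one endpoint, analysed for signal increase relative to DMSO controls.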

[6] = target: Peroxisome proliferator-activated receptor gamma (Homo sapiens) (UniProt P37231); experiment: OT_PPARg_PPARgSRC1_1440: Odyssey Thera (OT) 24-hour Protein-Complementation Assay for Peroxisome Proliferator-activated Receptor Gamma/ SRC-1 Co-activator (AID 2283388; active = hit-call score of the fitted dose curve at least 0.9, where 1 is the maximum;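 note: nuclear to cytoplasmic ratio of reconstituted Venus YFP fluorescence in fixed imaged cells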)
How it was run: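 Readout: nuclear-to-cytoplasmic 488 nm fluorescence ratio, ≥350 cells per image, 8 images per well, after 24 h compound exposure of HEK293T expressing PPARg/SRC-1 split-YFP fusions. Activity fitted in positive direction against DMSO.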

[7] = target: Peroxisome proliferator-activated receptor gamma (Homo sapiens) (UniProt P37231); experiment: OT_PPARg_PPARgSRC1_0480: Odyssey Thera (OT) 8-hour Protein-Complementation Assay for Peroxisome Proliferator-activated Receptor Gamma / SRC-1 Co-activator (AID 2283387; active = hit-call score of the fitted dose curve at least 0.9, where 1 is the maximum;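 note: nuclear to cytoplasmic split Venus YFP fluorescence ratio reporting PPARg SRC-1 interaction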)
How it was run: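 Read-out: 488 nm N/C fluorescence ratio from complemented Venus YFP fragments, ≥350 cells per image, gain-of-signal fitted against DMSO baseline. Fusions of PPARg/SRC-1 with IFP1/IFP2 expressed transiently in HEK293T; compounds applied 8 h.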

[8] = CCTE_Simmons_CellTiterGLO_HEK293T: Viability Assessment in CCTE's Assays for Thyroperoxidase (TPO) Inhibition, Simmons Lab (AID 2283665; active = hit-call score of the fitted dose curve at least 0.9, where 1 is the maximum)
How it was run: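 ATP depletion measured in HEK293T cells after 24 h dosing (8 concentrations, 5 nM–87.5 uM final; DMSO 0.5%) using CellTiter-Glo luminescence; curves fit for loss of signal against DMSO baseline.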

[9] = ACEA_AR_antagonist_AUC_viability: ACEA Biosciences xCELLigence Real-Time Cell Analysis on Androgen Receptor Antagonism for Viability (AID 2283776; active = hit-call score of the fitted dose curve at least 0.9, where 1 is the maximum;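 note: 22Rv1 human prostate cancer cells growing on impedance electrode plates; area under impedance growth curve at 80 h after dosing as viability; hits lower the growth signal relative to DMSO meaning cytotoxicity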)
How it was run: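 Real-time electrical impedance tracks 22Rv1 proliferation after continuous compound exposure (top 100 uM final, 1:4 steps, 8 concentrations). The 80 h area-under-curve serves as the cytotoxicity readout relative to DMSO.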

[10] = CEETOX_H295R_11DCORT: CeeTox H295R High-throughput Steroidogenesis Assay for 11-Deoxycortisol (11DCORT) (AID 2283432); settings: actives raise or lower the signal
How it was run: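 H295R cells; 10 uM forskolin prestim 48 h; compound in 0.1% DMSO 48 h; media extracted with MTBE; 11-deoxycortisol by LC-MS/MS, 7-point standard curve; gain/loss vs DMSO baseline; viability by MTT in same wells.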

[11] = CEETOX_H295R_CORTISOL: CeeTox H295R High-throughput Steroidogenesis Assay for Cortisol (AID 2283438); settings: actives raise or lower the signal;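 note: cortisol secreted into medium quantified by LC-MS/MS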
How it was run: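 Steroidogenesis in H295R, per modified OECD 456: 48 h forskolin (10 uM), then 48 h exposure, 0.1% DMSO. Cortisol by extraction and tandem MS; viability by MTT (570/650 nm); cytotoxic chemicals diluted and re-tested.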

[12] = read-out: ABC Transporter (ABCB1), ABCB1 (gene 5243); experiment: LTEA_HepaRG_ABCB1: Life Technologies and Expression Analysis (LTEA) Assay for ABC Transporter (ABCB1) using HepaRG (AID 2283460); settings: actives raise or lower the signal; mRNA level, 48 h
How it was run: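 ABCB1 transcript level measured by TaqMan qRT-PCR against three housekeeping genes after 48 h chemical exposure of differentiated HepaRG cells. Top concentration 100 uM, half-log steps, eight points, 0.5% DMSO vehicle; bidirectional fit relative to DMSO.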

[13] = read-out: Alkaline Phosphatase, Placental (ALPP) gene, ALPP (gene 250); experiment: LTEA_HepaRG_ALPP: Life Technologies and Expression Analysis (LTEA) Assay for Alkaline Phosphatase, Placental (ALPP) gene using HepaRG (AID 2283468); settings: actives raise or lower the signal; mRNA level, 48 h
How it was run: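 qRT-PCR readout of ALPP mRNA (Fluidigm TaqMan), normalized to ACTB/GAPDH/POLR2A, after 48 h chemical exposure of HepaRG cells; 8-point half-log series, top 100 uM, 0.5% DMSO vehicle. Bidirectional curve fit versus DMSO baseline.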

[14] = read-out: Cytochrome P450 3A4 (Homo sapiens) (UniProt P08684); experiment: LTEA_HepaRG_CYP3A4: Life Technologies and Expression Analysis (LTEA) Assay for CYP3A4 using HepaRG (AID 2283487); settings: actives raise or lower the signal; mRNA level, 48 h
How it was run: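 CYP3A4 transcript measured by TaqMan qRT-PCR and normalized to three housekeeping genes after 48 h chemical exposure of human HepaRG cells. Top concentration 100 uM, half-log steps, 0.5% DMSO vehicle; gain or loss fitted against DMSO baseline.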

[15] = read-out: Early growth response protein 1 (EGR1) transcription factor, EGR1 (gene 1958); experiment: LTEA_HepaRG_EGR1: Life Technologies and Expression Analysis (LTEA) Assay for Early growth response protein 1 (EGR1) transcription factor using HepaRG (AID 2283490); settings: actives raise or lower the signal; mRNA level, 48 h
How it was run: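 EGR1 transcript levels quantified by qRT-PCR (Fluidigm arrays) against three housekeeping genes after 48 h chemical exposure of HepaRG cells. Eight-point half-log series topping at 100 uM, 0.5% DMSO vehicle, analyzed for gain or loss.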

[16] = read-out: UDP glucuronosyltransferase (UGT1A1), UGT1A1 (gene 54658); experiment: LTEA_HepaRG_UGT1A1: Life Technologies and Expression Analysis (LTEA) Assay for UDP glucuronosyltransferase (UGT1A1) using HepaRG (AID 2283538); settings: actives raise or lower the signal; mRNA level, 48 h
How it was run: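 mRNA induction or loss of UGT1A1, by TaqMan qRT-PCR, in duplicate HepaRG wells after 48 h exposure to half-log dilutions topping at 100 uM; DMSO (0.5%) served as baseline.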

[17] = CEETOX_H295R_MTT_cell_viability: Viability Assessment in the CeeTox HT-H295R MTT Assay (AID 2283718)
[18] = CEETOX_H295R_OHPROG: CeeTox H295R High-throughput Steroidogenesis Assay for OH-Progesterone (OHPROG) (AID 2283435); settings: actives raise or lower the signal
CYP2E1 (gene 1571) = experiment: LTEA_HepaRG_CYP2E1: Life Technologies and Expression Analysis (LTEA) Assay for CYP2E1 using HepaRG (AID 2283485); settings: actives raise or lower the signal; mRNA level, 48 h
How it was run: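 Assay uses 48 h exposure of HepaRG hepatic cells, eight concentrations to 100 uM. Expression of CYP2E1 is quantified by TaqMan qRT-PCR with ACTB, GAPDH and POLR2A normalization; curves fitted in both directions relative to vehicle.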

[19] = target: Estrogen receptor (Homo sapiens) (UniProt P03372); experiment: OT_ERa_GFPERaERE_0480: Odyssey Thera (OT) 8-hour HeLa Transcription Induction Assay for Estrogen Receptor (AID 2283381)
How it was run: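 An 8 h HeLa transcription-induction format with a GFP reporter under ERE control, read by fluorescence microscopy; single endpoint fitted positively with DMSO as baseline.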

[20] = target: Retinoic acid receptor RXR-alpha (Homo sapiens) (UniProt P19793); experiment: OT_NURR1_NURR1RXRa_0480: Odyssey Thera (OT) 8-hour HEK293T Protein Complementation Assay for Nurr1/retinoid X receptor (RXR) (AID 2283385; active = hit-call score of the fitted dose curve at least 0.9, where 1 is the maximum)
How it was run: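 Gain in fluorescent complementation signal over DMSO, measured 8 hours after chemical dosing of human kidney HEK293T cells, indicated enhanced Nurr1–RXRα association.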

[21] = read-out: Ezrin (EZR), EZR (gene 7430); experiment: LTEA_HepaRG_EZR: Life Technologies and Expression Analysis (LTEA) Assay for Ezrin (EZR) using HepaRG (AID 2283491); settings: actives raise or lower the signal; mRNA level, 48 h
[22] = target: Luciferin 4-monooxygenase (Photinus pyralis) (UniProt P08659); experiment: CCTE_Simmons_QuantiLum_inhib_2: CCTE's Firefly Luciferase Inhibition Assay, Simmons Lab (AID 2283767; active = hit-call score of the fitted dose curve at least 0.9, where 1 is the maximum;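 note: potency for inhibitors that lower luciferase luminescence relative to DMSO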)
How it was run: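 Eight-point titrations of each chemical, 5 nM–87.5 uM final in 0.5% DMSO, were run in three biological replicates against recombinant luciferase for 30 min at 37C. Bioluminescence signal loss, read on reagent injection, gave the inhibition endpoint.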

[23] = CCTE_Mundy_HCI_Cortical_NOG_NeuronCount: CCTE's Neurite Outgrowth Assay in rat cortical cells for Neuron Count, Mundy Lab (AID 2284236; active = hit-call score of the fitted dose curve at least 0.9, where 1 is the maximum;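 note: neurons counted by imaging betaIII-tubulin and Hoechst stained cortical cells; cells exposed to compound for about 48 hours before fixation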)
How it was run: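 Read-out: neuron number by high-content imaging of betaIII-tubulin (Alexa Fluor-488) and Hoechst-labelled rat primary cortical cells.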

[24] = CCTE_Mundy_HCI_hNP1_Casp3_7: CCTE's Caspase-Glo 3/7 Assay in human neuroprogenitor cells for Apoptosis, Mundy Lab (AID 2284240)
How it was run: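 Apoptosis is scored by activated caspase-3/7 luminescence in WA09-derived neural progenitor cells, measured 26.5 h after chemical dosing. Values represent gain of signal relative to DMSO vehicle.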

COP(=O)(NC(C)=O)SC (stereo not given)
outcome [1]: inactive
outcome [2]: inactive
outcome [3]: inactive
outcome [4]: inactive

O=[N+]([O-])C(Br)(CO)CO
outcome [5]: inactive

O=c1nc(O)n(Cl)c(=O)n1Cl
outcome [6]: inactive

O=c1[nH]c(=O)n(Cl)c(=O)n1Cl
outcome [7]: inactive
outcome [8]: inactive
outcome [9]: inactive

O=[N+]([O-])c1ccc(Oc2ccc(Cl)cc2Cl)cc1
outcome [10]: inactive
outcome [11]: inactive
outcome [12]: inactive
outcome [13]: inactive
AC50 [14]: active: 9.92 µM
outcome [15]: inactive
AC50 [16]: active: 9.92 µM
outcome [17]: inactive

[As]#[In]
outcome [10]: inactive
outcome [18]: inactive
outcome [11]: inactive
outcome (CYP2E1 (gene 1571)): inactive

CN=C=S
outcome [19]: inactive

O=C1CCCN1
outcome [20]: inactive
outcome [6]: inactive
outcome [9]: inactive

CCOP(=S)(OCC)SCSC(C)(C)C
outcome [18]: inactive
outcome [21]: inactive
AC50 [22]: active: 12.3 µM
AC50 [23]: active: 84.3 µM
outcome [24]: inactive
